In PMC6783653, “TIP30 counteracts cardiac hypertrophy and failure by inhibiting translational elongation” (EMBO Molecular Medicine, 2019):
Results are given in words; binding and its absence hold for the method and conditions named. Binding seen in cells or lysates may run through a third protein. A yes stands for co-enrichment or nearness to the bait. Other partners may have been found. Sequences can lack the tags named with a protein.

Protein sequences, listed by entry. Tags and fused reporters are not part of them.
UniProt P13383: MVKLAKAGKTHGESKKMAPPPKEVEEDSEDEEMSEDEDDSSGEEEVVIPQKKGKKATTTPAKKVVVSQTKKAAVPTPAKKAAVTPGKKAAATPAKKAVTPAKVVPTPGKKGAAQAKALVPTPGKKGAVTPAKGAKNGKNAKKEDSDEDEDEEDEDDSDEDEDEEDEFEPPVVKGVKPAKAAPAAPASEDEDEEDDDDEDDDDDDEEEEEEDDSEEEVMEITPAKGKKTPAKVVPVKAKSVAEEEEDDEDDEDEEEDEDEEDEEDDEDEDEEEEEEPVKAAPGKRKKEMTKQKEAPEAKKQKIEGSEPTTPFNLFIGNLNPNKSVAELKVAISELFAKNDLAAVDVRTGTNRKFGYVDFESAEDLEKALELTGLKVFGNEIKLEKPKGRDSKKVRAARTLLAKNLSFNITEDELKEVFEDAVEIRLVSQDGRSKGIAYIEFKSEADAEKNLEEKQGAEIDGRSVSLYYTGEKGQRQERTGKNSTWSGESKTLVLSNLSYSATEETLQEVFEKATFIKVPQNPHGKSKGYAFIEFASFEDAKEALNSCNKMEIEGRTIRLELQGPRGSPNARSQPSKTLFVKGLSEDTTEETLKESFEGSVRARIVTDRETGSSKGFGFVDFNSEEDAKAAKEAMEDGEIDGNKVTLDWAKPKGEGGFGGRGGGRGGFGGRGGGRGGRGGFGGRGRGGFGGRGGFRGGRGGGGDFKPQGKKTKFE
UniProt P62630: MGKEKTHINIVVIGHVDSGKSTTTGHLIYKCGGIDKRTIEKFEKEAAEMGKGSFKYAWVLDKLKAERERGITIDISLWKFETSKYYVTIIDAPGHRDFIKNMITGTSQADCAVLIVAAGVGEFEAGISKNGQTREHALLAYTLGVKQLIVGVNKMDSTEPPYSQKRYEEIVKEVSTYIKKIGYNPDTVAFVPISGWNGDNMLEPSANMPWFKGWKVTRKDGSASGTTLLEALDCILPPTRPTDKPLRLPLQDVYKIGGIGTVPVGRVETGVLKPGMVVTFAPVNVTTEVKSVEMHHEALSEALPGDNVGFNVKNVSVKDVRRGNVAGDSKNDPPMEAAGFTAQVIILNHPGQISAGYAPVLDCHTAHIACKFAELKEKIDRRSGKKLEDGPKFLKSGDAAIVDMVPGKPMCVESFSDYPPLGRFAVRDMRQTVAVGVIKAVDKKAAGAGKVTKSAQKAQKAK
UniProt A7VJC2: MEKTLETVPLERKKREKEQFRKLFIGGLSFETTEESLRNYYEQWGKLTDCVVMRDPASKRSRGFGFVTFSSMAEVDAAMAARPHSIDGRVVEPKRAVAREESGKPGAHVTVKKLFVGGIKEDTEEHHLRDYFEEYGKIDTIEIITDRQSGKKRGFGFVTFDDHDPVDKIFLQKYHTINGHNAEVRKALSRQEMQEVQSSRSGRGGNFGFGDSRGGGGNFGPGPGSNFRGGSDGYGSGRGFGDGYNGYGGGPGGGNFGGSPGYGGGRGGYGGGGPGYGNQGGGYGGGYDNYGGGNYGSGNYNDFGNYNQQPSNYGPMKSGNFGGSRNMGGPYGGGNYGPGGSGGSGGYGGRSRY

What follows are substances tested against T1, GST-TIP30 (full-length TIP30, GST fusion, bacterial) (rat) (UniProt B0BNF8) (assay: affinity purification with mass spectrometry; GST or GST-TIP30 pull-down from neonatal rat cardiomyocyte lysate; bands apparent only in the GST-TIP30 lane excised from SDS-PAGE and identified by mass spectrometry; only the target purified).
T1 sequence: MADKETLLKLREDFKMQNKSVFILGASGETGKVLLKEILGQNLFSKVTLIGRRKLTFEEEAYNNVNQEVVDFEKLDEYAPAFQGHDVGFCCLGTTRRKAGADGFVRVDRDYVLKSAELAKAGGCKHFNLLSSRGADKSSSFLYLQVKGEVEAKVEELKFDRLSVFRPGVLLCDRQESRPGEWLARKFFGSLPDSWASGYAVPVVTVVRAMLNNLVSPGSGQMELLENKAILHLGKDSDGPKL

Substance | binding
endogenous nucleolin of neonatal rat cardiomyocytes (from UniProt P13383 1-713) | binds
endogenous eEF1A1 of neonatal rat cardiomyocytes (from UniProt P62630 1-462) | binds
endogenous heterogeneous nuclear ribonucleoprotein A2/B1 of neonatal rat cardiomyocytes (from UniProt A7VJC2 1-353) | binds
